Assay [1] deals with MIA PaCa-2 parental. The assay can be described thus: parental cell viability relative to untreated parental control; higher = more surviving cells. The following applies: treatment time: 9 days.
Assay [2] has as its system MIA PaCa-2 persister. In words: persister cell viability relative to untreated persister control; higher = more surviving persister cells. The following applies: treatment time: 9 days; cell state: persister (100 nM gemcitabine + 100 nM Torin1).

SMILES strings stand for the structures. This is one part of the list. Single values are uncertain, as repeats are few or missing.

For the compound `CC(=O)O[C@@H]1[C@@H](OC(C)=O)[C@@H](O)[C@H](Oc2c(-c3ccc(O)cc3)oc3cc(O)cc(O)c3c2=O)O[C@H]1C` (inhibitor concentration: 1µM), in assay [1], the parental cell viability came to 95%. Further, the persister cell viability in assay [2] was found to be 150%.
Take `CNC(=O)c1cc(Oc2ccc(NC(=O)Nc3ccc(Cl)c(C(F)(F)F)c3)cc2)ccn1` [Sorafenib] (inhibitor concentration: 10µM): the parental cell viability in assay [1] was determined as 19%. Further, in assay [2], the persister cell viability is 62%.
Consider `CC(C)C(C(=O)O)N1C(=O)C(=Cc2ccc(Br)cc2)SC1=S` (stereo unspecified) (inhibitor concentration: 10µM), for which the parental cell viability in assay [1] was 99%. Further, the persister cell viability in assay [2] was 97%.
As for `CC[C@H](Nc1ncnc2[nH]cnc12)c1nc2cccc(F)c2c(=O)n1-c1ccccc1` [Idelalisib] (inhibitor concentration: 30µM), the parental cell viability in assay [1] amounted to 100%. Moreover, the persister cell viability in assay [2] was 100%.
On to `CCN1CCN(CC(=O)Nc2ccc(-c3cccc4c(=O)cc(N5CCOCC5)oc34)c3sc4ccccc4c23)CC1` (inhibitor concentration: 1µM), for which the parental cell viability in assay [1] came out at 81.5%. Besides, the persister cell viability in assay [2] amounted to 110%.
With `COC(=O)c1ccc([C@H]2c3[nH]c4ccccc4c3C[C@H](C(=O)OC)N2C(=O)CCl)cc1` (inhibitor concentration: 100nM), the parental cell viability in assay [1] came to 80%. In assay [2], the persister cell viability stood at 5%.
Turning to `CN1CC[C@H](c2c(O)cc(O)c3c(=O)cc(-c4ccccc4Cl)oc23)[C@H](O)C1` [Flavopiridol] (inhibitor concentration: 100nM), in assay [1], the parental cell viability was determined as 100%. Moreover, the persister cell viability in assay [2] is 100%.
For the compound `Cc1c(-c2c(-c3ccc(F)o3)sc3ncnc(O[C@H](Cc4ccccc4OCc4ccnn4CC(F)(F)F)C(=O)O)c23)ccc(OCCN2CCN(C)CC2)c1Cl` (inhibitor concentration: 3µM), the parental cell viability in assay [1] was 60%. Further, the persister cell viability in assay [2] is 0%.
